Results taken from article PMC3794912.

Tests used:
[1] = molecular target: T1, Mms19::F[3] (S. cerevisiae) (UniProt P40469); test: split reporter; mDHFR protein-fragment complementation assay (PCA) in living S. cerevisiae; fragments F[1,2] and F[3] fused at the C-termini; read-out growth or colony size on medium with 200 µg/ml methotrexate (serial dilutions, robotic pinning, genome-wide rPCA screens)
T1 sequence: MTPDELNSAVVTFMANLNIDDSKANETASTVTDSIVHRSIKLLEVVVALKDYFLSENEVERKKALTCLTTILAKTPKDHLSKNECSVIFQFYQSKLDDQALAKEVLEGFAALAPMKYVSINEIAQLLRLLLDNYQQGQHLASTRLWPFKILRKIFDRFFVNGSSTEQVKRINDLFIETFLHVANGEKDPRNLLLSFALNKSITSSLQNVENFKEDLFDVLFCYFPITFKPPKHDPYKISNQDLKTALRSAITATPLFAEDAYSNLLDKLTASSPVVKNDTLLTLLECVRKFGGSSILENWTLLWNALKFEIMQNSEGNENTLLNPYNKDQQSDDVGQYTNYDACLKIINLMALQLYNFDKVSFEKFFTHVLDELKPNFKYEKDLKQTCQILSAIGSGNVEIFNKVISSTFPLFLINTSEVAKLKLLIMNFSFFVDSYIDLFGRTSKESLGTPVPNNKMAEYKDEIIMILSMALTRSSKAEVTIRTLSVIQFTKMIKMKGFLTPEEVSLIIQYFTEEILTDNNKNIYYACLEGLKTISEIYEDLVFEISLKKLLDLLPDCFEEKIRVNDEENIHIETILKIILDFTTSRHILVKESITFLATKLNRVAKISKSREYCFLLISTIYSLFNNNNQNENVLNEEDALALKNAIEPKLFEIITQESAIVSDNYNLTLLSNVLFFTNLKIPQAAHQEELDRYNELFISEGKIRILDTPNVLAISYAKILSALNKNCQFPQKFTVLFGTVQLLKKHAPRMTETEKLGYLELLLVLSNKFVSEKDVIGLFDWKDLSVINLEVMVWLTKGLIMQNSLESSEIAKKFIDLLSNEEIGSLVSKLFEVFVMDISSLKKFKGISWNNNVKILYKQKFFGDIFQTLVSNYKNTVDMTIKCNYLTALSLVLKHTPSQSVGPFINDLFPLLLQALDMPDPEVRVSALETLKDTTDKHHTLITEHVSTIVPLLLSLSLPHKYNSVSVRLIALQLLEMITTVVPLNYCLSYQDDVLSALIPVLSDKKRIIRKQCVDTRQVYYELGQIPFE

Cia2-Myc (S. cerevisiae) = test: co-IP; yeast whole-cell extracts in buffer B60; IP with anti-myc antibody and protein A-G-agarose, washes up to 270 mM potassium acetate; blots with anti-GFP or anti-TAP; cells depleted of Cia1 (GAL1-CIA1 in 2% glucose for 24 h) or carrying Ts alleles of CIA1, DNA2, POL3 or SPC24 grown 24 h at 35°C, against controls

binding [1]: binds
Molecule: Cia2::F[1,2] (S. cerevisiae)

binding [1]: binds
Molecule: Cia2-C161A::F[3] (S. cerevisiae)

binding (Cia2-Myc (S. cerevisiae)): binds
B1: Mms19-GFP (protein, UniProt P40469 1-1032)
chain: T1 sequence

binding (Cia2-Myc (S. cerevisiae)): binds
B2: Mms19-TAP (protein, UniProt P40469 1-1032)
chain: T1 sequence

These are yes or no findings as the source states them, for the method shown. In cells and extracts the contact can be indirect. A result given as binding can be weak or reduced; the word gives no strength. For some of these results: Tags and fused reporters may be left off the sequences shown. Each block holds one molecule with its values, some of them ahead of it.
